# Source: the supplement of paper PMC4604168 (melanoma cell lines)
# Some of the results follow. Many values rest on one well or one pass, so single values are uncertain.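 Cells were imaged in 1,536-well plates, and nuclei stained with an antibody against cleaved PARP were counted against all DNA-stained nuclei to give the apoptosis fraction. Screening doses were chosen to leave most cells alive, and resting and induced cleaved-PARP levels differ strongly between cell lines.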
# Legend:
# Assay in all cases: cleaved PARP positive nuclei fraction relative to DMSO control; melanoma cells; higher = more apoptosis
# Conditions in all cases: library dose: low library concentration; 72 h
# [1] = test system: 501Mel
# [2] = test system: A101D
# [3] = test system: A2058
# [4] = test system: A375
# [5] = test system: C32
# [6] = test system: CBRC008 (line from a melanoma biopsy)
# [7] = test system: CBRC014 (line from a melanoma biopsy)
# [8] = test system: CBRC016 (line from a melanoma biopsy)
# [9] = test system: CBRC017 (line from a melanoma biopsy)
# [10] = test system: CBRC034 (line from a melanoma biopsy)
# [11] = test system: COLO792
# [12] = test system: COLO800
# [13] = test system: COLO829
# [14] = test system: G361
# [15] = test system: IPC-298
# [16] = test system: IST-MEL1
# [17] = test system: LB2518-MEL
# [18] = test system: LOXIMVI
# [19] = test system: MEL-HO
SMILES,cleaved PARP positive nuclei fraction [1],cleaved PARP positive nuclei fraction [2],cleaved PARP positive nuclei fraction [3],cleaved PARP positive nuclei fraction [4],cleaved PARP positive nuclei fraction [5],cleaved PARP positive nuclei fraction [6],cleaved PARP positive nuclei fraction [7],cleaved PARP positive nuclei fraction [8],cleaved PARP positive nuclei fraction [9],cleaved PARP positive nuclei fraction [10],cleaved PARP positive nuclei fraction [11],cleaved PARP positive nuclei fraction [12],cleaved PARP positive nuclei fraction [13],cleaved PARP positive nuclei fraction [14],cleaved PARP positive nuclei fraction [15],cleaved PARP positive nuclei fraction [16],cleaved PARP positive nuclei fraction [17],cleaved PARP positive nuclei fraction [18],cleaved PARP positive nuclei fraction [19]
"CS(=O)(=O)CCNCc1ccc(-c2ccc3ncnc(Nc4ccc(OCc5cccc(F)c5)c(Cl)c4)c3c2)o1 [lapatinib] + OCc1c[nH]c2ccccc12 [Indole-3-carbinol] (first compound 0.8 µM, partner dose 0.8 µM)",459%,99.5%,90.6%,48.9%,73.8%,122%,94.4%,299%,97.4%,34%,108%,160%,215%,143%,95.6%,92.7%,108%,126%,96%
"CN1CCN(c2ccc3nc(-c4c(N)c5c(F)cccc5[nH]c4=O)[nH]c3c2)CC1 [Dovitinib] + C[C@]1(c2nc3c(C(N)=O)cccc3[nH]2)CCCN1 [Veliparib] (first compound 0.1 µM, partner dose 1.4 µM)",117%,100%,174%,215%,85.4%,102%,93%,16.7%,100%,57.8%,29.7%,343%,98.8%,90.2%,46.4%,121%,124%,68.2%,122%
"CCCS(=O)(=O)Nc1ccc(F)c(C(=O)c2c[nH]c3ncc(Cl)cc23)c1F + C=CCNC1=C2C[C@@H](C)C[C@H](OC)[C@H](O)[C@@H](C)/C=C(\C)[C@H](OC(N)=O)[C@@H](OC)/C=C\C=C(/C)C(=O)NC(=CC1=O)C2=O [Tanespimycin] (first compound 0.08 µM, partner dose 0.002 µM)",464%,103%,86.5%,85.9%,264%,91.1%,124%,96.4%,85.4%,27.7%,78.1%,221%,101%,124%,115%,266%,201%,50.5%,193%
"CO[C@H]1C[C@@H]2CC[C@@H](C)[C@@](O)(O2)C(=O)C(=O)N2CCCC[C@H]2C(=O)O[C@H]([C@H](C)C[C@@H]2CC[C@@H](OCCO)[C@H](OC)C2)CC(=O)[C@H](C)/C=C(\C)[C@@H](O)[C@@H](OC)C(=O)[C@H](C)C[C@H](C)/C=C/C=C/C=C/1C [everolimus] + O=C(O)c1ccc2c(c1)nc(Nc1cccc(Cl)c1)c1ccncc12 [CX4945] (first compound 0.02 µM, partner dose 0.4 µM)",820%,106%,61%,453%,90.8%,215%,167%,162%,203%,87.4%,268%,127%,164%,139%,136%,93%,123%,51.1%,68%
"CO[C@H]1C[C@@H]2CC[C@@H](C)[C@@](O)(O2)C(=O)C(=O)N2CCCC[C@H]2C(=O)O[C@H]([C@H](C)C[C@@H]2CC[C@@H](OCCO)[C@H](OC)C2)CC(=O)[C@H](C)/C=C(\C)[C@@H](O)[C@@H](OC)C(=O)[C@H](C)C[C@H](C)/C=C/C=C/C=C/1C [everolimus] + Cn1c(Nc2ccc(C(F)(F)F)cc2)nc2cc(Oc3ccnc(-c4ncc(C(F)(F)F)[nH]4)c3)ccc21 [CHIR265] (first compound 0.02 µM, partner dose 0.08 µM)",764%,78.9%,79.1%,1520%,168%,285%,85.6%,41.1%,119%,74%,249%,114%,68%,357%,316%,131%,215%,158%,104%
"Nc1ncn([C@H]2C[C@H](O)[C@@H](CO)O2)c(=O)n1 [decitabine] + COCC[n+]1c2c(n(Cc3cnccn3)c1C)C(=O)c1ccccc1C2=O [YM155] (first compound 0.1 µM, partner dose 0.0004 µM)",56.4%,240%,261%,209%,75.3%,262%,99.9%,131%,123%,83.2%,170%,142%,181%,151%,139%,45.5%,133%,77%,147%
"C=C(c1ccc(C(=O)O)cc1)c1cc2c(cc1C)C(C)(C)CCC2(C)C [Bexarotene] + C[C@]1(c2nc3c(C(N)=O)cccc3[nH]2)CCCN1 [Veliparib] (first compound 2 µM, partner dose 1.4 µM)",109%,91.3%,140%,360%,76.1%,118%,112%,314%,141%,73.7%,79.8%,48.7%,134%,71%,139%,204%,145%,53.1%,35.3%
"C=C(c1ccc(C(=O)O)cc1)c1cc2c(cc1C)C(C)(C)CCC2(C)C [Bexarotene] + CC(=O)c1c(C)c2cnc(Nc3ccc(N4CCNCC4)cn3)nc2n(C2CCCC2)c1=O [palbociclib] (first compound 2 µM, partner dose 0.04 µM)",197%,126%,64.1%,161%,113%,236%,119%,190%,341%,229%,150%,35.2%,121%,108%,270%,75.9%,194%,120%,32.2%
"CC(C)C[C@H](NC(=O)[C@H](Cc1ccccc1)NC(=O)c1cnccn1)B(O)O [Bortezomib] + COc1ccc(Cl)c(Nc2nc3ccccc3nc2NS(=O)(=O)c2cccc(NC(=O)C(C)(C)N)c2)c1 [XL147] (first compound 0.001 µM, partner dose 0.8 µM)",6610%,313%,55%,119%,90.4%,953%,233%,465%,242%,828%,130%,144%,292%,2720%,112%,240%,251%,133%,167%
"CS(=O)(=O)CCNCc1ccc(-c2ccc3ncnc(Nc4ccc(OCc5cccc(F)c5)c(Cl)c4)c3c2)o1 [lapatinib] + Cc1nc(Nc2ncc(C(=O)Nc3c(C)cccc3Cl)s2)cc(N2CCN(CCO)CC2)n1 [dasatanib] (first compound 0.8 µM, partner dose 0.004 µM)",107%,110%,154%,375%,165%,125%,135%,92.1%,81.7%,59.8%,146%,122%,106%,137%,60.6%,403%,96.5%,72.6%,46.5%
"Cn1c(=O)n(-c2ccc(C(C)(C)C#N)cc2)c2c3cc(-c4cnc5ccccc5c4)ccc3ncc21 + Nc1ccn([C@@H]2O[C@H](CO)[C@@H](O)C2(F)F)c(=O)n1 [gemcitabine] (first compound 0.004 µM, partner dose 0.0004 µM)",106%,102%,113%,47.9%,70.3%,63.7%,160%,146%,132%,112%,149%,69.2%,99.1%,78.9%,30.5%,91.2%,90.8%,66.3%,143%
"CC(C)C[C@H](NC(=O)[C@H](Cc1ccccc1)NC(=O)c1cnccn1)B(O)O [Bortezomib] + CCCS(=O)(=O)Nc1ccc(F)c(C(=O)c2c[nH]c3ncc(Cl)cc23)c1F [PLX4720] (first compound 0.001 µM, partner dose 0.08 µM)",211%,863%,101%,253%,84.7%,1690%,344%,474%,287%,769%,53.1%,76.6%,83.1%,5370%,77.8%,73.7%,859%,90.8%,121%
"Cc1cc(Nc2cc(N3CCN(C)CC3)nc(/C=C/c3ccccc3)n2)n[nH]1 + Nc1cccc2c1CN(C1CCC(=O)NC1=O)C2=O [lenalidomide] (first compound 0.04 µM, partner dose 1 µM)",124%,92.4%,65.5%,174%,78.2%,148%,93.3%,213%,83.2%,141%,152%,103%,127%,44.5%,81.5%,178%,123%,56%,79.6%
"CC(C)C[C@H](NC(=O)[C@H](Cc1ccccc1)NC(=O)c1cnccn1)B(O)O [Bortezomib] + C=C(c1ccc(C(=O)O)cc1)c1cc2c(cc1C)C(C)(C)CCC2(C)C [Bexarotene] (first compound 0.001 µM, partner dose 2 µM)",1180%,847%,92.1%,124%,181%,475%,384%,335%,178%,1870%,96.7%,139%,227%,5390%,110%,136%,655%,192%,106%
"Nc1nc(F)nc2c1ncn2[C@@H]1O[C@H](CO)[C@@H](O)[C@@H]1O [fludarabine] + Nc1cccc2c1CN(C1CCC(=O)NC1=O)C2=O [lenalidomide] (first compound 0.2 µM, partner dose 1 µM)",5780%,81.2%,87.4%,6830%,90.6%,147%,96.5%,42.9%,81.8%,126%,104%,73.6%,70.5%,132%,89.9%,138%,93.1%,112%,168%
"CO[C@H]1C[C@@H]2CC[C@@H](C)[C@@](O)(O2)C(=O)C(=O)N2CCCC[C@H]2C(=O)O[C@H]([C@H](C)C[C@@H]2CC[C@@H](OCCO)[C@H](OC)C2)CC(=O)[C@H](C)/C=C(\C)[C@@H](O)[C@@H](OC)C(=O)[C@H](C)C[C@H](C)/C=C/C=C/C=C/1C [everolimus] + Nc1ccn([C@@H]2O[C@H](CO)[C@@H](O)C2(F)F)c(=O)n1 [gemcitabine] (first compound 0.02 µM, partner dose 0.0004 µM)",504%,78.6%,207%,975%,80.5%,133%,174%,214%,131%,212%,113%,84.1%,116%,163%,47%,213%,267%,94.7%,138%

# Record cards (already shown). Values in the order: cleaved PARP positive nuclei fraction [1] | cleaved PARP positive nuclei fraction [2] | cleaved PARP positive nuclei fraction [3] | cleaved PARP positive nuclei fraction [4] | cleaved PARP positive nuclei fraction [5] | cleaved PARP positive nuclei fraction [6] | cleaved PARP positive nuclei fraction [7] | cleaved PARP positive nuclei fraction [8] | cleaved PARP positive nuclei fraction [9] | cleaved PARP positive nuclei fraction [10] | cleaved PARP positive nuclei fraction [11] | cleaved PARP positive nuclei fraction [12] | cleaved PARP positive nuclei fraction [13] | cleaved PARP positive nuclei fraction [14] | cleaved PARP positive nuclei fraction [15] | cleaved PARP positive nuclei fraction [16] | cleaved PARP positive nuclei fraction [17] | cleaved PARP positive nuclei fraction [18] | cleaved PARP positive nuclei fraction [19]
# CCCS(=O)(=O)Nc1ccc(F)c(C(=O)c2c[nH]c3ncc(Cl)cc23)c1F + C=CCNC1=C2C[C@@H](C)C[C@H](OC)[C@H](O)[C@@H](C)/C=C(\C)[C@H](OC(N)=O)[C@@H](OC)/C=C\C=C(/C)C(=O)NC(=CC1=O)C2=O [Tanespimycin] (first compound 0.08 µM, partner dose 0.002 µM) as listed: 464% | 103% | 86.5% | 85.9% | 264% | 91.1% | 124% | 96.4% | 85.4% | 27.7% | 78.1% | 221% | 101% | 124% | 115% | 266% | 201% | 50.5% | 193%
# CS(=O)(=O)CCNCc1ccc(-c2ccc3ncnc(Nc4ccc(OCc5cccc(F)c5)c(Cl)c4)c3c2)o1 [lapatinib] + OCc1c[nH]c2ccccc12 [Indole-3-carbinol] (first compound 0.8 µM, partner dose 0.8 µM) as listed: 459% | 99.5% | 90.6% | 48.9% | 73.8% | 122% | 94.4% | 299% | 97.4% | 34% | 108% | 160% | 215% | 143% | 95.6% | 92.7% | 108% | 126% | 96%
